According to paper PMC6261971:
Results are given in words; binding and its absence hold for the method and conditions named. Binding seen in cells or lysates may run through a third protein. Some entries that bind do so weakly or less than the wild type. For part of these data: Sequences can lack the tags named with a protein.

Sequences of proteins named here, by UniProt entry; tags and fusion partners are left off.
UniProt P62993: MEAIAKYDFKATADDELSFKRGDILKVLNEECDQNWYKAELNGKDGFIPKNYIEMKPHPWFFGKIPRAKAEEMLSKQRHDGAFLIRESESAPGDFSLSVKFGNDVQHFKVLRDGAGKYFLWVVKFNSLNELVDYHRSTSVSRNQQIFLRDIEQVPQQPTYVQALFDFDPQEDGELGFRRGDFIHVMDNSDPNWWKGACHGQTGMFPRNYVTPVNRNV

Key:
[1] = molecular target: endogenous Grb2 (human (endogenous in BGC-823 and SGC-7901)) (UniProt P62993); test: co-IP; SGC-7901 cell lysates, endogenous proteins, immunoprecipitated with anti-Grb2 or anti-DENND1A antibody, western blot
[2] = molecular target: endogenous Grb2 (human (endogenous in BGC-823 and SGC-7901)) (UniProt P62993); test: co-IP; BGC-823 cell lysates, endogenous proteins, immunoprecipitated with anti-Grb2 or anti-DENND1A antibody, western blot
GST-Grb2 = GST-Grb2 (UniProt P62993); test: pull-down; GST-Grb2 bound to glutathione beads incubated in vitro with lysates of HEK-293T cells transfected with or without HA-DENND1A, western blot; only the target purified
Flag-Grb2 [3] = molecular target: Flag-Grb2 (UniProt P62993); test: co-IP; HEK-293T cells transiently transfected with Flag-Grb2 and HA-DENND1A, immunoprecipitated with anti-HA or anti-Flag antibody, western blot
Flag-Grb2 [4] = molecular target: Flag-Grb2 (UniProt P62993); test: co-IP; HA-tagged DENND1A fragments with Flag-Grb2, and Flag-tagged Grb2 fragments with HA-DENND1A, in transfected cells (BGC-823 by the text, HEK-293T by the legend), immunoblotting
Flag-Grb2 [5] = molecular target: Flag-Grb2 (UniProt P62993); test: co-IP; BGC-823 cells transfected with Flag-Grb2 and HA-DENND1A, treated with or without EGF, western blot

Measured: binding

B1: endogenous DENND1A (protein, UniProt Q8TEH3 1-1009)
chain: MGSRIKQNPETTFEVYVEVAYPRTGGTLSDPEVQRQFPEDYSDQEVLQTLTKFCFPFYVDSLTVSQVGQNFTFVLTDIDSKQRFGFCRLSSGAKSCFCILSYLPWFEVFYKLLNILADYTTKRQENQWNELLETLHKLPIPDPGVSVHLSVHSYFTVPDTRELPSIPENRNLTEYFVAVDVNNMLHLYASMLYERRILIICSKLSTLTACIHGSAAMLYPMYWQHVYIPVLPPHLLDYCCAPMPYLIGIHLSLMEKVRNMALDDVVILNVDTNTLETPFDDLQSLPNDVISSLKNRLKKVSTTTGDGVARAFLKAQAAFFGSYRNALKIEPEEPITFCEEAFVSHYRSGAMRQFLQNATQLQLFKQFIDGRLDLLNSGEGFSDVFEEEINMGEYAGSDKLYHQWLSTVRKGSGAILNTVKTKANPAMKTVYKFAKDHAKMGIKEVKNRLKQKDIAENGCAPTPEEQLPKTAPSPLVEAKDPKLREDRRPITVHFGQVRPPRPHVVKRPKSNIAVEGRRTSVPSPEQPQPYRTLRESDSAEGDEAESPEQQVRKSTGPVPAPPDRAASIDLLEDVFSNLDMEAALQPLGQAKSLEDLRAPKDLREQPGTFDYQRLDLGGSERSRGVTVALKLTHPYNKLWSLGQDDMAIPSKPPAASPEKPSALLGNSLALPRRPQNRDSILNPSDKEEVPTPTLGSITIPRPQGRKTPELGIVPPPPIPRPAKLQAAGAALGDVSERLQTDRDRRAALSPGLLPGVVPQGPTELLQPLSPGPGAAGTSSDALLALLDPLSTAWSGSTLPSRPATPNVATPFTPQFSFPPAGTPTPFPQPPLNPFVPSMPAAPPTLPLVSTPAGPFGAPPASLGPAFASGLLLSSAGFCAPHRSQPNLSALSMPNLFGQMPMGTHTSPLQPLGPPAVAPSRIRTLPLARSSARAAETKQGLALRPGDPPLLPPRPPQGLEPTLQPSAPQQARDPFEDLLQKTKQDVSPSPALAPAPDSVEQLRKQWETFE
binds: [1] | [2]

B2: HA-DENND1A (protein, UniProt Q8TEH3 1-1009)
chain: MGSRIKQNPETTFEVYVEVAYPRTGGTLSDPEVQRQFPEDYSDQEVLQTLTKFCFPFYVDSLTVSQVGQNFTFVLTDIDSKQRFGFCRLSSGAKSCFCILSYLPWFEVFYKLLNILADYTTKRQENQWNELLETLHKLPIPDPGVSVHLSVHSYFTVPDTRELPSIPENRNLTEYFVAVDVNNMLHLYASMLYERRILIICSKLSTLTACIHGSAAMLYPMYWQHVYIPVLPPHLLDYCCAPMPYLIGIHLSLMEKVRNMALDDVVILNVDTNTLETPFDDLQSLPNDVISSLKNRLKKVSTTTGDGVARAFLKAQAAFFGSYRNALKIEPEEPITFCEEAFVSHYRSGAMRQFLQNATQLQLFKQFIDGRLDLLNSGEGFSDVFEEEINMGEYAGSDKLYHQWLSTVRKGSGAILNTVKTKANPAMKTVYKFAKDHAKMGIKEVKNRLKQKDIAENGCAPTPEEQLPKTAPSPLVEAKDPKLREDRRPITVHFGQVRPPRPHVVKRPKSNIAVEGRRTSVPSPEQPQPYRTLRESDSAEGDEAESPEQQVRKSTGPVPAPPDRAASIDLLEDVFSNLDMEAALQPLGQAKSLEDLRAPKDLREQPGTFDYQRLDLGGSERSRGVTVALKLTHPYNKLWSLGQDDMAIPSKPPAASPEKPSALLGNSLALPRRPQNRDSILNPSDKEEVPTPTLGSITIPRPQGRKTPELGIVPPPPIPRPAKLQAAGAALGDVSERLQTDRDRRAALSPGLLPGVVPQGPTELLQPLSPGPGAAGTSSDALLALLDPLSTAWSGSTLPSRPATPNVATPFTPQFSFPPAGTPTPFPQPPLNPFVPSMPAAPPTLPLVSTPAGPFGAPPASLGPAFASGLLLSSAGFCAPHRSQPNLSALSMPNLFGQMPMGTHTSPLQPLGPPAVAPSRIRTLPLARSSARAAETKQGLALRPGDPPLLPPRPPQGLEPTLQPSAPQQARDPFEDLLQKTKQDVSPSPALAPAPDSVEQLRKQWETFE
binds: GST-Grb2 | Flag-Grb2 [3] | Flag-Grb2 [4] | Flag-Grb2 [5]
